The test concerns the target T1, STING (mouse (endogenous in BMDMs of C57BL/6 mice)) (UniProt Q3TBT3).
T1 sequence: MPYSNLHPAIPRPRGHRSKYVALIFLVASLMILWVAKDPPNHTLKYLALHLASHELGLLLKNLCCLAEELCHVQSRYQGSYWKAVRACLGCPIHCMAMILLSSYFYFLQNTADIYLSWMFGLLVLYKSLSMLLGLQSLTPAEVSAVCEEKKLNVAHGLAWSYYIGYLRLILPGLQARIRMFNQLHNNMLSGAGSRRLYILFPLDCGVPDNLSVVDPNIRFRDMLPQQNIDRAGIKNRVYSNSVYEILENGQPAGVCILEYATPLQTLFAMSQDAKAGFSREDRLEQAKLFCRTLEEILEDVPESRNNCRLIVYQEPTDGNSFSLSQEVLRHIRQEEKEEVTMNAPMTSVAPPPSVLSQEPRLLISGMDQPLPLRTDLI
Briefly: co-IP; BMDM lysate (700 ug) immunoprecipitated with anti-STING antibody (5 ug) on rProtein A/G magnetic beads, 4°C, 16 h; blots with anti-ULK1 and anti-STING.

No constants are given. Whether binding was seen depends on the method and setting. Binding seen in cells or lysates may run through a third protein. Some results given as binding are weak or reduced against the parent protein; the word gives no strength.

B1: ULK1 (protein, UniProt O70405 1-1051)
chain: MEPGRGGVETVGKFEFSRKDLIGHGAFAVVFKGRHREKHDLEVAVKCINKKNLAKSQTLLGKEIKILKELKHENIVALYDFQEMANSVYLVMEYCNGGDLADYLHTMRTLSEDTVRLFLQQIAGAMRLLHSKGIIHRDLKPQNILLSNPGGRRANPSNIRVKIADFGFARYLQSNMMAATLCGSPMYMAPEVIMSQHYDGKADLWSIGTIVYQCLTGKAPFQASSPQDLRLFYEKNKTLVPAIPRETSAPLRQLLLALLQRNHKDRMDFDEFFHHPFLDASTPIKKSPPVPVPSYPSSGSGSSSSSSSASHLASPPSLGEMPQLQKTLTSPADAAGFLQGSRDSGGSSKDSCDTDDFVMVPAQFPGDLVAEAASAKPPPDSLLCSGSSLVASAGLESHGRTPSPSPTCSSSPSPSGRPGPFSSNRYGASVPIPVPTQVHNYQRIEQNLQSPTQQQTARSSAIRRSGSTTPLGFGRASPSPPSHTDGAMLARKLSLGGGRPYTPSPQVGTIPERPSWSRVPSPQGADVRVGRSPRPGSSVPEHSPRTTGLGCRLHSAPNLSDFHVVRPKLPKPPTDPLGATFSPPQTSAPQPCPGLQSCRPLRGSPKLPDFLQRSPLPPILGSPTKAGPSFDFPKTPSSQNLLTLLARQGVVMTPPRNRTLPDLSEASPFHGQQLGSGLRPAEDTRGPFGRSFSTSRITDLLLKAAFGTQASDSGSTDSLQEKPMEIAPSAGFGGTLHPGARGGGASSPAPVVFTVGSPPSGATPPQSTRTRMFSVGSSSSLGSTGSSSARHLVPGACGEAPELSAPGHCCSLADPLAANLEGAVTFEAPDLPEETLMEQEHTETLHSLRFTLAFAQQVLEIAALKGSASEAAGGPEYQLQESVVADQISQLSREWGFAEQLVLYLKVAELLSSGLQTAIDQIRAGKLCLSSTVKQVVRRLNELYKASVVSCQGLSLRLQRFFLDKQRLLDGIHGVTAERLILSHAVQMVQSAALDEMFQHREGCVPRYHKALLLLEGLQHTLTDQADIENIAKCKLCIERRLSALLSGVYA
For B1, the binding result was “binds”.

The values above are taken from paper PMC11742833.
